Assay results as given in patent US20190225704A1.
These are yes or no findings as the source states them, for the method shown. Some binding calls cover weakened binding; strength is not graded here. For some assays here: Where a sequence is shown, tags or fusion partners need not be part of it.

How the values were obtained:
[1] = molecular target: T1, TMEM132A forcibly expressed on DLD-1 cells (TMEM132A gene, Genbank Accession No.: NM_017870.3, with a Flag sequence) (human) (UniProt Q24JP5); test: flow cytometry, hybridoma culture supernatant (selection)
T1 sequence (looked up): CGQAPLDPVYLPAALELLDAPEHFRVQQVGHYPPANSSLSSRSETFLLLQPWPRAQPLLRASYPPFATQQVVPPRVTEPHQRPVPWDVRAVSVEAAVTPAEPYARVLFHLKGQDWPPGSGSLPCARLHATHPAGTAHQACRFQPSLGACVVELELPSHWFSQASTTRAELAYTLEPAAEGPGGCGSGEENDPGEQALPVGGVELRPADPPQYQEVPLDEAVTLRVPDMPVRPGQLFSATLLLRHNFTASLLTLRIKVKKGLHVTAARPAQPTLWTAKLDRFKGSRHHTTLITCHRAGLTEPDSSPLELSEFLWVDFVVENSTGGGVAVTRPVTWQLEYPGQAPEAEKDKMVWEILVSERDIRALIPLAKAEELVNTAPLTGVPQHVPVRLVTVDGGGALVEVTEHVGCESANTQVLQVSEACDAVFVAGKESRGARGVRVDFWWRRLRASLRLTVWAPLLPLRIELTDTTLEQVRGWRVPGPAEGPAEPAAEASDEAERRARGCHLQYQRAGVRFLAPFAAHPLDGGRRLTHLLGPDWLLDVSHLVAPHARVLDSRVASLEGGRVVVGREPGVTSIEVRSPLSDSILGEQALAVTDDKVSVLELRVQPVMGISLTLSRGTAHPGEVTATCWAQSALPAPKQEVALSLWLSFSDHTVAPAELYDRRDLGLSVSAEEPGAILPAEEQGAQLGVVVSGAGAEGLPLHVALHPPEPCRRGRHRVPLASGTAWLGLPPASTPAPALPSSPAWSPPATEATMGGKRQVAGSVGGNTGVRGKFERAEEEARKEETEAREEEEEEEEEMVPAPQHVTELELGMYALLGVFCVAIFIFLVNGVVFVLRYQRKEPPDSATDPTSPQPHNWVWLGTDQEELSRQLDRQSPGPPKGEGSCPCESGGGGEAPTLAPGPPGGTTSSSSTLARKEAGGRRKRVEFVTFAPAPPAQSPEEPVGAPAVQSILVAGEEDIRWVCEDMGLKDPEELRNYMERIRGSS

[2] = molecular target: T2, TMEM132A on human colorectal cancer cell line DLD-1 (endogenous) (human) (UniProt Q24JP5); test: as above
T2 sequence (looked up): T1 sequence (looked up)

binding [1]: binds
binding [2]: binds
B1: T6-1475 antibody (antibody, V domains shown)
VH: DVQLQESGPGLVKPSQSLSLTCSVTGYSITSDYYWNWIRQFPGNKLEWMGYIRYDGYNAYNPSLKSRISITRDTSKNQFLLKLKSVTTEDTATYFCARNDYDGYYFDNWGQGTTLTVS
VL: DIVMSQSPSSLAVSVGEKVTMSCKSSQSLLYSTNQKNYLAWYQQKPGQSPQLLIYWASTRESGVPDRFTGSGSGTDFTLTISSVSAEDLAVYYCQQYYTNPYTFGGGAKLEIK
